# Laboratory results from patent publication US10588921B2, “Drug for the treatment of cholesterol accumulation disorders” (NATIONAL UNIVERSITY CORPORATION KUMAMOTO UNIVERSITY, priority 2013, dated 2020).
# Test system: NPC-derived HLCs
# Experiment: Microarray, cluster and PCA analysis of HLCs treated with HPCDs
# Assay type: cell-based, human
# Details: HLCs cultured with HPCD 4 days; FIG. 29
substance,measurement,value
2-hydroxypropyl-γ-cyclodextrin [HPGCD],gene expression patterns of the altered molecular signature,closer to that of normal HLCs than those with HPBCD treatments
